The values below come from the supplement of paper PMC8326762, “A Small Molecule Inhibitor of Pex3–Pex19 Interaction Disrupts Glycosome Biogenesis and Causes Lethality in Trypanosoma brucei” (Frontiers in Cell and Developmental Biology, 2021).

Where a name gives a salt, the structure may show the parent alone. The list shows a part of the results. This is a noisy data set.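 Yeast growth was read as optical density at 600 nm. The two-hybrid strains grew without histidine, so growth needed the Pex3–Pex19 binding; a compound counted as trypanosome-selective if it cut growth of the trypanosome-pair strain by more than 65% and the human-pair strain by less than 65%.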

The first assay relates to human PEX3-PEX19 interaction (yeast two-hybrid). Briefly: growth inhibition of yeast two-hybrid strain reporting HsPex3-HsPex19 interaction, relative to DMSO; higher = stronger inhibition of human Pex3-Pex19 interaction / growth. The following applies: 100 µM; 24 h; 3-aminotriazole 10 mM.
For the molecule `CN1CC[C@]2(CCN3CCc4c(oc5ccccc45)[C@@H]3C2)N(C)C1=O`, the growth inhibition amounted to 48.2%.
The same measure, in the same setting: then `N.N.[Cl][Pt][Cl]` [Cisplatin], with 31.9%; and `COC(=O)C1=CCCN(C)C1` [Arecoline hydrobromide], with 42.3%.
Still for that read-out and setting: then `CCC1(C2=NCCN2)Cc2ccccc2O1` (configuration not stated) [Efaroxan hydrochloride], with 42.9%.
Same read-out and setting: then `NC(Cn1oc(=O)[nH]c1=O)C(=O)O` (single isomer, unassigned; (+)) [(+)-Quisqualic acid], with 43.4%.
Regarding `CC(=O)[C@H]1CC[C@H]2[C@@H]3CC[C@H]4C[C@](C)(O)CC[C@]4(C)[C@H]3CC[C@]12C` [Ganaxolone], the growth inhibition was 33.2%.
On the same count and under the same terms, next, `OCc1cnc[nH]1` [4-Imidazolemethanol hydrochloride]: 48.1%; `O=[N+]([O-])c1cc(O)c(O)c([N+](=O)[O-])c1` [3,5-Dinitrocatechol]: 26.8%.

Another assay deals with T. brucei Pex3-Pex19 interaction (yeast two-hybrid). The assay can be described thus: growth inhibition of yeast two-hybrid strain reporting TbPex3-TbPex19 interaction, relative to DMSO; higher = stronger inhibition of T. brucei Pex3-Pex19 interaction / growth. The following applies: 100 µM; 24 h.
As for `CC(C)(C)OC(=O)NC1[C@H]2CNC[C@@H]12` (some centres not stated), the growth inhibition was 68.8%.
The same measure, in the same setting: next, `c1ccc2c(N3CCNCC3)cccc2c1` [1-(1-Naphthyl)piperazine hydrochloride]: 58.2%; `CCCN1CCC[C@@H]2Cc3nc(N)ncc3C[C@H]21` [Quinelorane dihydrochloride]: -15.6%; `CCCCCCCCCCCCCC(=O)O[C@@H]1[C@@H](C)[C@@]2(O)[C@@H](C=C(CO)C[C@]3(O)C(=O)C(C)=C[C@@H]23)[C@@H]2C(C)(C)[C@]12OC(C)=O` [Phorbol 12-myristate 13-acetate]: 49.5%.
On the same count and under the same terms, next, `CN1CCc2cccc(Cl)c2CC1`: 60.9%; `CC[C@@H](CO)NC(=O)[C@@H]1C=C2c3cccc4c3c(cn4C)C[C@H]2N(C)C1` [Methysergide maleate]: 55.1%.
On the same count and under the same terms, then `CCCN1CCc2cccc3c2[C@H]1Cc1ccc(O)c(O)c1-3` [R(-)-Propylnorapomorphine hydrochloride], with 60.8%; and `Cc1nccc2c1[nH]c1ccccc12` [Harmane], with 55.5%; and `Cc1cc([C@@H]2CCCN2C)on1` [ABT-418 hydrochloride], with 48.7%.
On to `CCCN1CCc2cc(O)cc3c2[C@H]1Cc1ccc(O)c(O)c1-3` [R(-)-2,10,11-Trihydroxy-N-propylnoraporphine hydrobromide], for which the growth inhibition is 58.1%.
The same measure, in the same setting: then `CC[C@@H](CO)NC(=O)[C@@H]1C=C2c3cccc4[nH]cc(c34)C[C@H]2N(C)C1` [Methylergonovine maleate], with 46.3%; and `NC(=O)c1cc(N2CC2)c([N+](=O)[O-])cc1[N+](=O)[O-]`, with 57%.
On the same count and under the same terms, then `NC(=O)CN1CC(O)CC1=O` (configuration not stated) [Oxiracetam], with 64.1%; and `CN1[C@@H]2CC[C@H]1C[C@@H](OC(c1ccccc1)c1ccccc1N)C2` (some centres not stated) [Aminobenztropine], with 62.1%; and `NC(N)=NOCC[C@H](N)C(=O)O` [L-Canavanine sulfate], with 31.9%.
On the same count and under the same terms, then `C=C(C)[C@@H]1[C@H]2OC(=O)[C@@H]1[C@]1(O)C[C@H]3OC34C(=O)O[C@H]2[C@@]41C.CC(C)(O)[C@@H]1[C@H]2OC(=O)[C@@H]1[C@]1(O)C[C@H]3OC34C(=O)O[C@H]2[C@@]41C` (some centres not stated) [Picrotoxin], with 71.8%; and `O=[N+]([O-])c1ccc2nc(N3CCNCC3)ccc2c1` [Quipazine, 6-nitro-, maleate], with 65.7%; and `C=CCN1CC[C@]23CCCC[C@H]2[C@H]1Cc1ccc(O)cc13` [Levallorphan tartrate], with 53.5%.
On to `CNc1ccc2oc(C[C@H]3O[C@@]4(CC[C@H]3C)O[C@H]([C@H](C)C(=O)c3ccc[nH]3)[C@H](C)C[C@H]4C)nc2c1C(=O)O` [Calcimycin], for which the growth inhibition came out at 47.5%.
Same read-out and setting: then `CCCC[N+]1(C)[C@@H]2C[C@@H](OC(=O)[C@H](CO)c3ccccc3)C[C@H]1[C@@H]1O[C@@H]12` (single isomer, unassigned; (-)) [(-)-Scopolamine,n-Butyl-, bromide], with 69.8%; and `CC(N)Cc1c[nH]c2ccc(OCc3cccs3)cc12` (configuration not stated), with 57.9%; and `c1ccc2c(c1)OCC(C1=NCCN1)O2` (configuration not stated) [Idazoxan hydrochloride], with 62.1%.
On the same count and under the same terms, then `CCCN1CCC[C@@H]2Cc3n[nH]cc3C[C@H]21` [(-)-Quinpirole hydrochloride], with 69.1%; and `CC(C)N(CCC(C(N)=O)(c1ccccc1)c1ccccn1)C(C)C` (configuration not stated) [Disopyramide], with 33.9%; and `O=C1CCCN1CC#CCN1CCCC1` [Oxotremorine sesquifumarate salt], with 69.6%.
On to `CCCN(CCC)C1Cc2cc(OC)c(OC)cc2C1`, for which the growth inhibition came to 56.9%.
Still for that read-out and setting: next, `NC(N)=NOCC[C@H](N)C(=O)O` [L-Canavanine]: 46%; `NCC(O)c1ccc(O)cc1` (racemic) [(±)-Octopamine hydrochloride]: 61.2%; `CN(C)C(=O)Oc1cccc([N+](C)(C)C)c1` [Neostigmine bromide]: 65.1%.
As to `CC(N)Cc1c[nH]c2ccc(O)cc12` (stereo not drawn) [alpha-Methyl-5-hydroxytryptamine maleate], the growth inhibition is 63.1%.
Same read-out and setting: next, `NCCCNCCSP(=O)(O)O` [Amifostine]: 65.6%; `CN1CC[C@]2(CCN3CCc4c(oc5ccccc45)[C@@H]3C2)N(C)C1=O`: 71.3%.
Still for that read-out and setting: then `N.N.[Cl][Pt][Cl]` [Cisplatin], with 73.4%; and `COC(=O)C1=CCCN(C)C1` [Arecoline hydrobromide], with 58%.
As for `CCC1(C2=NCCN2)Cc2ccccc2O1` (configuration not stated) [Efaroxan hydrochloride], the growth inhibition is 56.3%.
Same read-out and setting: next, `NC(Cn1oc(=O)[nH]c1=O)C(=O)O` (single isomer, unassigned; (+)) [(+)-Quisqualic acid]: 58.8%; `CC(=O)[C@H]1CC[C@H]2[C@@H]3CC[C@H]4C[C@](C)(O)CC[C@]4(C)[C@H]3CC[C@]12C` [Ganaxolone]: 54%; `OCc1cnc[nH]1` [4-Imidazolemethanol hydrochloride]: 66.7%.
On the same count and under the same terms, next, `O=[N+]([O-])c1cc(O)c(O)c([N+](=O)[O-])c1` [3,5-Dinitrocatechol]: 47.7%.
